Experimental data reported in PubChem BioAssay AID504842 (National Center for Advancing Translational Sciences (NCATS), 2011).
Out of some 330,000 compounds screened, about 100 (0.03%) were called active. Inconclusive means that the source gave no clear call. Such entries were picked first, then a sample of the others. Calls follow the shape of the dose curve; as a rule, active = well fitted inhibition curve with a large enough effect; inconclusive = small, poorly fitted or top-dose-only effect; inactive = flat fitted curve, though single readings scatter. A potency beside an inconclusive call is a rough fit, not a confirmed value.

tested on: Chaperonin Mm-Cpn (Methanococcus maripaludis); experiment: Inhibitors of TCP-1 ring complex (TRiC) of Methanococcus maripaludis (MmCpn): qHTS; conditions: purified Mm-Cpn ATPase, ADP Transcreener TR-FRET; also: nearly all actives have a fitted effect of over 80% in size;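 as to potency: enzyme at 25 nM with ATP substrate at 10 µM during the reaction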
Procedure, shortened: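 ATP (10 uM final) was added to archaeal chaperonin (25 nM final) after 10 min exposure to test compound at 37°C; after 30 min further incubation, ADP was detected by competitive TR-FRET.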
Potency is read from the fitted curve at half-maximal effect.

SMILES | Potency
COCCOC(=O)C1=C(C)N=C2SCCC(=O)N2C1/C=C/c1ccccc1 (stereo unspecified) | inconclusive: 12.6 µM [inhibitor, single point]
[O-]/C(=C(\C(=S)Nc1ccc(SC(F)F)cc1)[n+]1ccccc1)c1cc(Cl)ccc1Cl | inconclusive: 100 µM [inhibitor, single point]
CCCn1c(N)c(C(=O)CSc2ncnc3sccc23)c(=O)n(C)c1=O | inconclusive: 112 µM [inhibitor, single point]
CC(C)C(=O)Nc1ccc2oc(-c3cc(F)c(F)cc3Cl)nc2c1 | inconclusive: 100 µM [inhibitor, single point]
CCC(=O)Nc1nc(-c2ccccc2)ns1 | inactive
Cn1c(=O)n(C)c2cc([N+](=O)[O-])c(N3CCN(S(=O)(=O)c4ccc5ccccc5c4)CC3)cc21 | inactive
Nc1ncnc2c1ncn2[C@@H]1O[C@H](CNS(=O)(=O)c2ccc3c(c2)CCN(C(=O)C(F)(F)F)C3)[C@@H](O)[C@H]1O | inconclusive: 20 µM [inhibitor, single point]
CCOc1ccc(NC(=O)[C@H](Cc2ccccc2)NC(=O)C2CCNCC2)cc1 | inconclusive: 31.6 µM [inhibitor, single point]
C#CCOCCOCCOCCNc1nc(N2CCN(C(=O)CCCCCCCCCCNC(=O)[C@@H](CCC(=O)O)n3cc(CCCCCN)nn3)CC2)nc(N2CCN(C(=O)CCCCCCCCCCNC(=O)[C@H]([C@@H](C)CC)n3cc(CCCCCN)nn3)CC2)n1 | active: 44.7 µM
O=S1(=O)C=C(SCc2cccc(Cl)c2)Nc2ccccc21 | inactive
Cc1ccc(S(=O)(=O)N(C)C)cc1NC(=O)C(C)N(C)Cc1sccc1C (stereo unspecified) | inconclusive: 56.2 µM [inhibitor, single point]
O=c1[nH]c2ccc(S(=O)(=O)N3CCCCC3)cc2[nH]1 | inactive
CCCCCNC(=O)CSC1=N/C(=C\c2ccc(Cl)c(Cl)c2)C(=O)N1CC | inconclusive: 112 µM [inhibitor, single point]
COc1cc(S(=O)(=O)N2CCOCC2)ccc1NC(=O)CN1c2cccc3cccc(c23)S1(=O)=O | inconclusive: 100 µM [inhibitor, single point]
O=C(c1cc(-c2ccccn2)nc2c(Cl)cccc12)N1CCN(S(=O)(=O)c2ccccc2)CC1 | inconclusive: 56.2 µM [inhibitor, single point]
CC1CC(C)CN(c2nc(N(C)c3ccccc3)nc(N)c2[N+](=O)[O-])C1 (stereo unspecified) | inactive
CC(=O)NC1C(=O)N(CCN2CCOCC2)c2ccc(Br)cc21 (stereo unspecified) | inactive
CCn1c(=NC(=O)CS(=O)(=O)c2ccc(F)cc2)sc2cccc(OC)c21 | inconclusive: 100 µM [inhibitor, partial curve, poor fit]
CC1Oc2ccccc2N(CC(=O)c2cccc(Cl)c2)C1=O (stereo unspecified) | inactive
COc1ccc(/C=C2\SC(=S)N(CCC(=O)Nc3ccc(O)cc3)C2=O)cc1 | inactive
CSCC[C@H](N)C(=O)N1CCC(C(=O)N[C@@H](C)C(=O)NCc2ccc(F)cc2)CC1 | inactive
Cc1cc(N/N=C\c2ccccc2)nc(-c2ccccc2O)n1 | inactive

2 entries from above in a different format:
SMILES,Potency
COCCOC(=O)C1=C(C)N=C2SCCC(=O)N2C1/C=C/c1ccccc1 (stereo unspecified),"inconclusive: 12.6 µM [inhibitor, single point]"
[O-]/C(=C(\C(=S)Nc1ccc(SC(F)F)cc1)[n+]1ccccc1)c1cc(Cl)ccc1Cl,"inconclusive: 100 µM [inhibitor, single point]"

Additional records

SMILES | Potency
Cc1nnc(N/N=C\c2ccc(-c3ccccc3[N+](=O)[O-])o2)n1N | inconclusive: 63.1 µM [inhibitor, single point]
CC(=O)Nc1ccc2nc(C)n(Cc3ccc(Cl)cc3)c(=O)c2c1 | inconclusive: 100 µM [inhibitor, partial curve, poor fit]
CCCCNC(=S)Nc1cccc2cnccc12 | inactive
Fc1ccc(-n2c(-c3ccco3)n[nH]c2=S)cc1 | inconclusive: 562 µM [inhibitor, partial curve, poor fit]
CCN(c1ccccc1)S(=O)(=O)c1cccc(C(=O)NCC(c2ccco2)N2CCCC2)c1 (stereo unspecified) | inconclusive: 14.1 µM [inhibitor, single point]
COc1ccc2cc(-c3ccccc3)ncc2c1 | inactive
O=C(Nc1ccc(Cl)c(Cl)c1)c1ccccc1 | inactive
CCCn1nc(NC(=O)C(C)(C)C)c2cc3cc(OC)ccc3nc21 | inactive
COc1ccc(C(=O)NCc2c(C)oc(C)c2C(=O)O)cc1 | inactive
Cc1nc(SC2CCOC2=O)c2c(C)c(C)sc2n1 (stereo unspecified) | inconclusive: 708 µM [inhibitor, partial curve, poor fit]
O=C(NCCO)Nc1ccc2nc(-c3ccco3)c(-c3ccco3)nc2c1 | inconclusive: 50.1 µM [inhibitor, single point]
NC(=O)N1OCC2COc3ccc4ccccc4c3C21 (stereo unspecified) | inconclusive: 11.2 µM [inhibitor, single point]
C#CCOCCOCCOCCNc1nc(N2CCN(C(=O)CCCCCCCCCCNC(=O)[C@H](CCCCN)n3cc(C)nn3)CC2)nc(N2CCN(C(=O)CCCCCCCCCCNC(=O)[C@H](CCCN=C(N)N)n3cc(C[C@@H](C)CC)nn3)CC2)n1 | inconclusive: 89.1 µM [inhibitor, single point]
Cc1ccc(S(=O)(=O)NC(=O)c2ccc(Br)o2)c(C)c1 | inconclusive: 22.4 µM [inhibitor, single point]
O=C(COC(=O)c1ccc[nH]c1=O)NC1CCCCC1 | inconclusive: 20 µM [inhibitor, single point]
COc1ccc(-c2cc3nc(C)cc(-c4ccc(OC)cc4)n3n2)cc1 | inconclusive: 631 µM [inhibitor, partial curve, poor fit]
COc1ccccc1-n1c(-c2ccccc2)c[n+]2c1CCc1ccccc1-2 | inactive
Cn1c(-c2c(N)n(CCc3ccccc3)c3nc4ccccc4nc23)nc2ccccc21 | inactive
COc1ccc(OC)c(S(=O)(=O)N2CCC(C(=O)Nc3ccc(C)c(C)c3)CC2)c1 | inactive
CSc1nnc(CSc2cc(C)nc(N(C)C)n2)o1 | inconclusive: 89.1 µM [inhibitor, single point]
O=C(O)Cc1sc(-c2ccccc2)nc1-c1cccs1 | inconclusive: 251 µM [inhibitor, partial curve, poor fit]
COc1ccc(CCN(CC(=O)NC2CCCC2)C(=O)CCC(=O)Nc2cc(C)on2)cc1OC | inconclusive: 11.2 µM [inhibitor, single point]

SMILES | Potency
O=C(COC(=O)c1ccc([N+](=O)[O-])o1)NCCCc1ccccc1 | inactive
CC(=O)Nc1ccc(NC(=O)c2c(C)noc2C)cc1 | inconclusive: 20 µM [inhibitor, single point]
Cc1ccsc1/C=N/NC(=O)C1CC(=O)N(c2ccc(F)cc2)C1 (stereo unspecified) | inconclusive: 25.1 µM [inhibitor, single point]
COc1cc(C(=O)N(Cc2ccccc2)c2cccc(C)c2)ccc1OC(F)F | inactive
CC(C)c1ccc(NC(=O)c2cc(Br)ccc2Br)cc1 | inconclusive: 79.4 µM [inhibitor, single point]
Cc1nc(-c2cccc(S(=O)(=O)N3CCOCC3)c2)cs1 | inconclusive: 100 µM [inhibitor, single point]
CCCCc1c(C)c2ccc(OCC(C)=O)cc2oc1=O | inconclusive: 447 µM [inhibitor, partial curve, poor fit]
COc1ccccc1NC(=O)CN1CCC(c2nc3ccccc3[nH]2)CC1 | inconclusive: 22.4 µM [inhibitor, single point]
O=C(COC(=O)c1ccc(Cl)nc1)NC(=O)c1ccc(OC(F)F)cc1 | inconclusive: 89.1 µM [inhibitor, single point]
CCOC(=O)c1sc(NC(=O)C2CCC2)cc1C | inconclusive: 355 µM [inhibitor, partial curve, poor fit]
COC(=O)c1c(NC(=O)C2Cc3ccccc3C(=O)O2)sc2c1CCCC2 (stereo unspecified) | inconclusive: 112 µM [inhibitor, single point]
COC(=O)c1ccc(NC(=O)C2CCCN2C(=O)Nc2cccc(C(C)=O)c2)cc1 (stereo unspecified) | inconclusive: 100 µM [inhibitor, partial curve, poor fit]
O=C(CN1CCC(C(=O)c2ccc3c(c2)OCCO3)CC1)Nc1ccccc1F | inconclusive: 39.8 µM [inhibitor, single point]
COc1cc([N+](=O)[O-])cc2cc(C(=O)N3CCCC3)c(=O)oc12 | inconclusive: 11.2 µM [inhibitor, single point]
CCCOc1ccc(C(C)=O)cc1Cc1c(O)nc(SC)[nH]c1=O | inconclusive: 25.1 µM [inhibitor, partial curve, poor fit]
COc1ccccc1N1CCN(C(=O)Cn2nnc(-c3cccs3)n2)CC1 | inconclusive: 100 µM [inhibitor, partial curve, poor fit]
Cc1cc(NC(=O)c2cc(-c3ccc4c(c3)OCO4)on2)n(-c2ccccc2)n1 | inconclusive: 15.8 µM [inhibitor, single point]
O=C(c1cn(-c2ccccc2)nc1-c1cccs1)N1CCN(c2ccc(F)cc2)CC1 | inconclusive: 79.4 µM [inhibitor, partial curve, poor fit]
Cc1cc(C(=O)N2CCN(S(=O)(=O)c3ccc(F)c(Cl)c3)CC2)c(C)o1 | inconclusive: 25.1 µM [inhibitor, single point]
COc1cccc(CNC(=O)COC(=O)c2cc([N+](=O)[O-])ccc2N2CCCC2)c1 | inconclusive: 20 µM [inhibitor, single point]
CC#C[C@@H](CC)c1ccc2ccn(C)c2c1 | inconclusive: 63.1 µM [inhibitor, single point]
COc1ccc(-c2nc(NC(=O)c3cc(C(C)(C)C)nn3C)sc2C)cc1 | inconclusive: 100 µM [inhibitor, single point]

Part of the list above in order of length of the SMILES, smallest number first.
SMILES | Potency
O=C(NCCO)Nc1ccc2nc(-c3ccco3)c(-c3ccco3)nc2c1 | inconclusive: 50.1 µM [inhibitor, single point]
COc1ccc(/C=C2\SC(=S)N(CCC(=O)Nc3ccc(O)cc3)C2=O)cc1 | inactive
Cn1c(-c2c(N)n(CCc3ccccc3)c3nc4ccccc4nc23)nc2ccccc21 | inactive
